Source: patent US10227357B2, “Compounds and methods for kinase modulation, and indications therefor” (Plexxikon Inc., priority 2012, dated 2019)
Some of these results come from one statement about several compounds together.

Chains of the proteins cited; added tags and fusions are not shown.
UniProt P10721, whole entry D816V: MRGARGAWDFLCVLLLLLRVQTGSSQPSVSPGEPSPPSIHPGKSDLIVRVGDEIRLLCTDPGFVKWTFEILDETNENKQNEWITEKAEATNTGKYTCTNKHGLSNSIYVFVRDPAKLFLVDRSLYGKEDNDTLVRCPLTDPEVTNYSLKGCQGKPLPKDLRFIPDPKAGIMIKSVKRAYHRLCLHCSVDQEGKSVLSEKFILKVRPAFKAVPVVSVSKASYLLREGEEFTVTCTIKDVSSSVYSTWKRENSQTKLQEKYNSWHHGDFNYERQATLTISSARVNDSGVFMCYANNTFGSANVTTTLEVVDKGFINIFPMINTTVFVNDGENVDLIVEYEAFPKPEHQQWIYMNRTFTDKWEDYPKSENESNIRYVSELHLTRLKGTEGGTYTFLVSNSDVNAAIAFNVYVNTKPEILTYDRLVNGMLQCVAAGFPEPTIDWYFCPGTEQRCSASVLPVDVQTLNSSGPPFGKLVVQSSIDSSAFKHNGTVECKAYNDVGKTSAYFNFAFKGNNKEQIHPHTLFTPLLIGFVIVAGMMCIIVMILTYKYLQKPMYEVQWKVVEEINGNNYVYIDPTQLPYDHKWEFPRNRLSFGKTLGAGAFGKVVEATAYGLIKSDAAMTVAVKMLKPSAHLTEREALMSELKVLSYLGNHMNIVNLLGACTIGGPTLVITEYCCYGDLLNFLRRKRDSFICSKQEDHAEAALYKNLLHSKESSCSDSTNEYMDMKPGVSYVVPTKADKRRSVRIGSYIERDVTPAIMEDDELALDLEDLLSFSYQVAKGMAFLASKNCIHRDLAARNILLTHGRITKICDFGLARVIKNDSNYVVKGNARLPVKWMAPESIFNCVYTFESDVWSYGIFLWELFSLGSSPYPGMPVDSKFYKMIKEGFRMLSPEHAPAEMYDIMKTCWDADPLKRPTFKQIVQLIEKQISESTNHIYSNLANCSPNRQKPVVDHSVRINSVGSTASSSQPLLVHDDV

The compounds below were run against BaF3-FL KIT D816V cells (Homo sapiens, UniProt P10721, D816V, cells depend on it, form not given) (assay: Cell-based assay of c-Kit mutant kinase activity, BaF3-FL KIT D816V cell proliferation (ATPlite)). Conditions: in at least one of the c-kit cell assays described in Example 28 (BaF3-FL KIT D816V or BaF3-FL KIT V560G/D816V); read-out: IC50 (the source's name).

SMILES	GI50 [µM]
O=S(=O)(NC1CCN(c2ncnc3[nH]c(C4=CCCC4)cc23)CC1)c1ccc(OC(F)(F)F)cc1 [P-0669, N-[1-[6-(cyclopenten-1-yl)-7H-pyrrolo[2,3-d]pyrimidin-4-yl]-4-piperidyl]-4-(trifluoromethoxy)benzenesulfonamide]	< 10
N#Cc1ccc(-c2cc3c(N4CCC(NS(=O)(=O)c5ccc(OC(F)(F)F)cc5)CC4)ncnc3[nH]2)cn1 [P-0671, N-[1-[6-(6-cyano-3-pyridyl)-7H-pyrrolo[2,3-d]pyrimidin-4-yl]-4-piperidyl]-4-(trifluoromethoxy)benzenesulfonamide]	< 10
Cc1ccc(S(=O)(=O)NC2CCN(c3ncnc4[nH]c(-c5cnn(C)c5)cc34)CC2C)cc1 (stereo not shown) [P-0672, 4-methyl-N-[3-methyl-1-[6-(1-methylpyrazol-4-yl)-7H-pyrrolo[2,3-d]pyrimidin-4-yl]-4-piperidyl]benzenesulfonamide]	< 10
CN(C)c1ncc(-c2cc3c(N4CCC(NS(=O)(=O)c5ccc(OC(F)(F)F)cc5)CC4)ncnc3[nH]2)s1 [P-0673, N-[1-[6-[2-(dimethylamino)thiazol-5-yl]-7H-pyrrolo[2,3-d]pyrimidin-4-yl]-4-piperidyl]-4-(trifluoromethoxy)benzenesulfonamide]	< 10
CCc1ccc(S(=O)(=O)NC2CCN(c3ncnc4[nH]c(C)cc34)CC2)cc1 [P-0674, 4-ethyl-N-[1-(6-methyl-7H-pyrrolo[2,3-d]pyrimidin-4-yl)-4-piperidyl]benzenesulfonamide]	< 10
Cc1ccc(S(=O)(=O)NC2CCN(c3ncnc4[nH]c(C)cc34)CC2)cc1 [P-0675, 4-methyl-N-[1-(6-methyl-7H-pyrrolo[2,3-d]pyrimidin-4-yl)-4-piperidyl]benzenesulfonamide]	< 10
CCc1ccc(S(=O)(=O)NC2CCN(c3ncnc4[nH]c(-c5cnn(C)c5)cc34)CC2)cc1 [P-0676, 4-ethyl-N-[1-[6-(1-methylpyrazol-4-yl)-7H-pyrrolo[2,3-d]pyrimidin-4-yl]-4-piperidyl]benzenesulfonamide]	< 10
C[C@H](NC(=O)N1CCN(c2ncnc3ccsc23)CC1(C)C)c1cccc(Cl)c1 [P-0677, N-[(1S)-1-(3-chlorophenyl)ethyl]-2,2-dimethyl-4-thieno[3,2-d]pyrimidin-4-yl-piperazine-1-carboxamide]	< 10
CC(C)(NC(=O)N1CCN(c2ncnc3cc(-c4ccc(F)cc4)sc23)CC1(C)C)c1ccccc1 [P-0678, 4-[6-(4-fluorophenyl)thieno[3,2-d]pyrimidin-4-yl]-2,2-dimethyl-N-(1-methyl-1-phenyl-ethyl)piperazine-1-carboxamide]	< 10
CC(C)(NC(=O)N1CC=C(c2ncnc3cc(-c4ccc(F)cc4)sc23)CC1)c1ccccc1 [P-0679, 4-[6-(4-fluorophenyl)thieno[3,2-d]pyrimidin-4-yl]-N-(1-methyl-1-phenyl-ethyl)-3,6-dihydro-2H-pyridine-1-carboxamide]	< 10
COc1cccc([C@H](C)NC(=O)N2CCN(c3ncnc4cc(N5CCC(F)(F)CC5)sc34)CC2(C)C)c1 [P-0680, 4-[6-(4,4-difluoro-1-piperidyl)thieno[3,2-d]pyrimidin-4-yl]-N-[(1S)-1-(3-methoxyphenyl)ethyl]-2,2-dimethyl-piperazine-1-carboxamide]	< 10
CCOC(=O)N1CCN(c2cc3ncnc(N4CCN(C(=O)N[C@@H](C)c5cccc(OC)c5)C(C)(C)C4)c3s2)CC1 [P-0681, ethyl 4-[4-[4-[[(1S)-1-(3-methoxyphenyl)ethyl]carbamoyl]-3,3-dimethyl-piperazin-1-yl]thieno[3,2-d]pyrimidin-6-yl]piperazine-1-carboxylate]	< 10
COc1cccc([C@H](C)NC(=O)N2CCN(c3ncnc4[nH]c(C)cc34)C[C@H]2C)c1 [P-0683, (2R)-N-[(1S)-1-(3-methoxyphenyl)ethyl]-2-methyl-4-(6-methyl-7H-pyrrolo[2,3-d]pyrimidin-4-yl)piperazine-1-carboxamide]	< 10
Cc1cc2c(N3CCN(C(=O)N[C@@H](C)c4cccc(F)c4)[C@H](C)C3)ncnc2[nH]1 [P-0684, (2R)-N-[(1S)-1-(3-fluorophenyl)ethyl]-2-methyl-4-(6-methyl-7H-pyrrolo[2,3-d]pyrimidin-4-yl)piperazine-1-carboxamide]	< 10
C[C@H](NC(=O)N1CCN(c2ncnc3[nH]c(-c4ccc(C#N)cc4)cc23)CC1(C)C)c1ccc(F)cc1 [P-0685, 4-[6-(4-cyanophenyl)-7H-pyrrolo[2,3-d]pyrimidin-4-yl]-N-[(1S)-1-(4-fluorophenyl)ethyl]-2,2-dimethyl-piperazine-1-carboxamide]	< 10
C[C@H](NC(=O)N1CCN(c2ncnc3[nH]c(-c4ccc(C#N)cc4)cc23)CC1(C)C)c1ccc(Cl)cc1 [P-0686, N-[(1S)-1-(4-chlorophenyl)ethyl]-4-[6-(4-cyanophenyl)-7H-pyrrolo[2,3-d]pyrimidin-4-yl]-2,2-dimethyl-piperazine-1-carboxamide]	< 10

SMILES	GI50 [µM]
COc1cccc([C@H](C)NC(=O)N2CCN(c3ncnc4[nH]c(-c5ccc(C#N)cc5)cc34)CC2(C)C)c1 [P-0687, 4-[6-(4-cyanophenyl)-7H-pyrrolo[2,3-d]pyrimidin-4-yl]-N-[(1S)-1-(3-methoxyphenyl)ethyl]-2,2-dimethyl-piperazine-1-carboxamide]	< 10
C[C@H](NC(=O)N1CCN(c2ncnc3[nH]c(-c4ccc(C#N)cc4)cc23)CC1(C)C)c1cccc(Cl)c1 [P-0689, N-[(1S)-1-(3-chlorophenyl)ethyl]-4-[6-(4-cyanophenyl)-7H-pyrrolo[2,3-d]pyrimidin-4-yl]-2,2-dimethyl-piperazine-1-carboxamide]	< 10
C[C@H](NC(=O)N1CCN(c2ncnc3[nH]c(-c4ccc(C#N)cc4)cc23)C[C@H]1C)c1ccc(F)cc1 [P-0690, (2R)-4-[6-(4-cyanophenyl)-7H-pyrrolo[2,3-d]pyrimidin-4-yl]-N-[(1S)-1-(4-fluorophenyl)ethyl]-2-methyl-piperazine-1-carboxamide]	< 10
C[C@H](NC(=O)N1CCN(c2ncnc3[nH]c(-c4ccc(C#N)cc4)cc23)C[C@H]1C)c1ccc(Cl)cc1 [P-0691, (2R)-N-[(1S)-1-(4-chlorophenyl)ethyl]-4-[6-(4-cyanophenyl)-7H-pyrrolo[2,3-d]pyrimidin-4-yl]-2-methyl-piperazine-1-carboxamide]	< 10
COc1cccc([C@H](C)NC(=O)N2CCN(c3ncnc4[nH]c(-c5ccc(C#N)cc5)cc34)C[C@H]2C)c1 [P-0692, (2R)-4-[6-(4-cyanophenyl)-7H-pyrrolo[2,3-d]pyrimidin-4-yl]-N-[(1S)-1-(3-methoxyphenyl)ethyl]-2-methyl-piperazine-1-carboxamide]	< 10
C[C@H](NC(=O)N1CCN(c2ncnc3[nH]c(-c4ccc(C#N)cc4)cc23)C[C@H]1C)c1cccc(F)c1 [P-0693, (2R)-4-[6-(4-cyanophenyl)-7H-pyrrolo[2,3-d]pyrimidin-4-yl]-N-[(1S)-1-(3-fluorophenyl)ethyl]-2-methyl-piperazine-1-carboxamide]	< 10
C[C@H](NC(=O)N1CCN(c2ncnc3[nH]c(-c4ccc(C#N)cc4)cc23)C[C@H]1C)c1cccc(Cl)c1 [P-0694, (2R)-N-[(1S)-1-(3-chlorophenyl)ethyl]-4-[6-(4-cyanophenyl)-7H-pyrrolo[2,3-d]pyrimidin-4-yl]-2-methyl-piperazine-1-carboxamide]	< 10
COc1cc(-c2cc3c(N4CCN(C(=O)N[C@@H](C)c5ccc(F)cc5)[C@H](C)C4)ncnc3[nH]2)ccn1 [P-0695, (2R)-N-[(1S)-1-(4-fluorophenyl)ethyl]-4-[6-(2-methoxy-4-pyridyl)-7H-pyrrolo[2,3-d]pyrimidin-4-yl]-2-methyl-piperazine-1-carboxamide]	< 10
C[C@H](NC(=O)N1CCN(c2ncnc3[nH]c(-c4ccc(C#N)cc4)cc23)CC1)c1ccc(F)cc1 [P-0696, 4-[6-(4-cyanophenyl)-7H-pyrrolo[2,3-d]pyrimidin-4-yl]-N-[(1S)-1-(4-fluorophenyl)ethyl]piperazine-1-carboxamide]	< 10
C[C@H](NC(=O)N1CCN(c2ncnc3[nH]c(-c4ccc(C#N)cc4)cc23)CC1)c1cccc(Cl)c1 [P-0697, N-[(1S)-1-(3-chlorophenyl)ethyl]-4-[6-(4-cyanophenyl)-7H-pyrrolo[2,3-d]pyrimidin-4-yl]piperazine-1-carboxamide]	< 10
C[C@H](NC(=O)N1CCN(c2ncnc3[nH]c(-c4ccc(C#N)cc4)cc23)CC1(C)C)c1cccc(OC(F)F)c1 [P-0698, 4-[6-(4-cyanophenyl)-7H-pyrrolo[2,3-d]pyrimidin-4-yl]-N-[(1S)-1-[3-(difluoromethoxy)phenyl]ethyl]-2,2-dimethyl-piperazine-1-carboxamide]	< 10
C[C@H](NC(=O)N1CCN(c2ncnc3[nH]c(-c4ccc(F)cc4)cc23)CC1(C)C)c1ccc(Cl)cc1 [P-0700, N-[(1S)-1-(4-chlorophenyl)ethyl]-4-[6-(4-fluorophenyl)-7H-pyrrolo[2,3-d]pyrimidin-4-yl]-2,2-dimethyl-piperazine-1-carboxamide]	< 10
C[C@H](NC(=O)N1CCN(c2ncnc3[nH]c(-c4ccc(F)cc4)cc23)C[C@H]1C)c1cccc(Cl)c1 [P-0701, (2R)-N-[(1S)-1-(3-chlorophenyl)ethyl]-4-[6-(4-fluorophenyl)-7H-pyrrolo[2,3-d]pyrimidin-4-yl]-2-methyl-piperazine-1-carboxamide]	< 10
C[C@H](NC(=O)N1CCN(c2ncnc3[nH]c(-c4ccc(C#N)cc4)cc23)CC1)c1ccc(Cl)cc1 [P-0702, N-[(1S)-1-(4-chlorophenyl)ethyl]-4-[6-(4-cyanophenyl)-7H-pyrrolo[2,3-d]pyrimidin-4-yl]piperazine-1-carboxamide]	< 10
Cc1ccc(C(C)NC(=O)N2CCN(c3ncnc4cc(-c5ccc(F)cc5)sc34)CC2)s1 (stereo not shown) [P-0703, 4-[6-(4-fluorophenyl)thieno[3,2-d]pyrimidin-4-yl]-N-[1-(5-methyl-2-thienyl)ethyl]piperazine-1-carboxamide]	< 10
